From paper PMC9456107, “DNA Motifs and an Accessory CRISPR Factor Determine Cas1 Binding and Integration Activity in Sulfolobus islandicus” come the findings set out here.

The target in test [1] is T1, Cas1 protein with C-terminal His tag (S. islandicus REY15A) (UniProt F0NGP4).
T1 sequence: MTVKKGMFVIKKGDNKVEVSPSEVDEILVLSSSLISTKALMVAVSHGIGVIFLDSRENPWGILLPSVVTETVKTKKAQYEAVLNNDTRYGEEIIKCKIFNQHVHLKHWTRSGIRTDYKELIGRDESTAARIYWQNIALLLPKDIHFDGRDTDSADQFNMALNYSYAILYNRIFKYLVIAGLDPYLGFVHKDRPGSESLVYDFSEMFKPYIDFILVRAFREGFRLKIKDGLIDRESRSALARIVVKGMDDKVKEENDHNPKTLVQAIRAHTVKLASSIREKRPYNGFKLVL
Put plainly: cross-linking; 10 μg each of purified Csa3a and Cas1 in 20 mM HEPES-NaOH pH 7.6, 500 mM NaCl, 5% glycerol, 20 min at 40 °C; 1 mM BS3, room temperature 1 h; trypsin digest, LC-MS, XLinkX; both purified.

Test [2] addresses T1, Cas1 protein with C-terminal His tag (S. islandicus REY15A). Put plainly: native gel or EMSA; EMSA with the wildtype leader-proximal probe: 1.2 μM Cas1 with increasing amounts of Csa3a (0.6, 1.2 and 2.4 μM); super shifts and a well shift; both purified. (In general: Mobility shift assays separate free from complexed probe on a gel.)
For test [3], the target named is His-tagged Csa3a (S. islandicus REY15A). Put plainly: pull-down; His-tag pull-down: equal amounts of purified GST-Cas1 or GST and Csa3a-His mixed with Ni-NTA agarose beads, 1 h at 4 °C; wash 20 mM HEPES-NaOH pH 7.6, 500 mM NaCl, 20 mM imidazole; elution 500 mM imidazole; SDS-PAGE, Coomassie staining; both purified.
The target is the same in test [4]. Nature of the test: condition: only with the leader-proximal motif DNA (P1) added beside the leader-distal motif DNA (P2); native gel or EMSA; EMSA with P2, Csa3a and Cas1, with increasing amounts of 5'-end FAM-labeled leader-proximal motif ssDNA (P1) added as the competitor for Cas1 binding; both purified.
Test [5] shares this target. Nature of the test: native gel or EMSA; EMSA with 5'-end HEX-labeled leader-distal motif dsDNA (P2): Csa3a with increasing amounts of Cas1; further retarded band; both purified.

Results are given in words; binding and its absence hold for the method and conditions named. For some assays here: Binding can be weak; no strength is given. Sequences can lack the tags named with a protein.

For the molecule His-tagged Csa3a (S. islandicus REY15A), the binding entry in test [1] and in test [2] was “binds” in each case.

B1: GST-tagged Cas1 (protein, UniProt F0NGP4 1-290)
chain: MTVKKGMFVIKKGDNKVEVSPSEVDEILVLSSSLISTKALMVAVSHGIGVIFLDSRENPWGILLPSVVTETVKTKKAQYEAVLNNDTRYGEEIIKCKIFNQHVHLKHWTRSGIRTDYKELIGRDESTAARIYWQNIALLLPKDIHFDGRDTDSADQFNMALNYSYAILYNRIFKYLVIAGLDPYLGFVHKDRPGSESLVYDFSEMFKPYIDFILVRAFREGFRLKIKDGLIDRESRSALARIVVKGMDDKVKEENDHNPKTLVQAIRAHTVKLASSIREKRPYNGFKLVL
Take B1: in test [3], the binding entry was “binds”.

B2: Cas1 protein with C-terminal His tag (protein, UniProt F0NGP4 1-290)
chain: MTVKKGMFVIKKGDNKVEVSPSEVDEILVLSSSLISTKALMVAVSHGIGVIFLDSRENPWGILLPSVVTETVKTKKAQYEAVLNNDTRYGEEIIKCKIFNQHVHLKHWTRSGIRTDYKELIGRDESTAARIYWQNIALLLPKDIHFDGRDTDSADQFNMALNYSYAILYNRIFKYLVIAGLDPYLGFVHKDRPGSESLVYDFSEMFKPYIDFILVRAFREGFRLKIKDGLIDRESRSALARIVVKGMDDKVKEENDHNPKTLVQAIRAHTVKLASSIREKRPYNGFKLVL
Consider B2, for which the binding result in test [4] is “no binding”; in test [5], “binds”.
